The numbers were not newly measured in US6413974B1, “6,9,-disubstituted 2-[trans-(4-aminocyclohexyl) amino] purines” (Aventis Pharmaceuticals Inc., priority 1998, dated 2002), which cites them from elsewhere.

The data set concerns 60 human tumour cell lines. As to conditions: read-out: average IC50, proliferation of 60 human tumour cell lines; NCI screen, nine tumour types, Meijer et al.; cited from earlier work.

For `CCC(CO)Nc1nc(NCc2ccccc2)c2ncn(C(C)C)c2n1` (stereo not shown) [107, 466 rescovitine, 2-(1-ethyl-2-hydroxyethylamino)-6-benzylamino-9-isopropylpurine], the IC50 is 16 µM.
